These are yes or no findings as the source states them, for the method shown. Binding seen in cells or lysates may run through a third protein. A yes stands for co-enrichment or nearness to the bait. Other partners may have been found. A no says only that the protein was not detected with the bait.

The target of this assay is T1, Biotinylated non-phosphorylated GHR_Y595 peptide on Neutravidin beads.
T1 sequence (peptide, biotin-aminohexanoic acid on the N-terminus; C-terminal amide): PVPDYTSIHIV
The experiment in a line: affinity purification with mass spectrometry; biotinylated GHR peptides (pY595 or Y595) on Neutravidin beads incubated with human K562 total cell lysate, 2 h at 4 °C; competition with 100 μM non-biotinylated GHR_pY595 in the lysate; tandem mass tag labelling and MS; only the target purified.

Regarding “Cul5 (cullin 5), endogenous (from UniProt Q93034 1-780)”, the binding entry is “no binding”.
In the case of “Rbx2 (RING box protein 2), endogenous (from UniProt Q9UBF6 1-113)” it was “no binding”.

For the origin of these results see paper PMC4326827, “Biophysical Studies on Interactions and Assembly of Full-size E3 Ubiquitin Ligase” (The Journal of Biological Chemistry, 2014).
